Data: PubChem BioAssay AID588590 (National Center for Advancing Translational Sciences (NCATS), 2011)
Among all 390,000 compounds or so, about 4,000 (1%) were called active. The shares of active, inactive and inconclusive entries below differ from those in the screen. Calls follow the shape of the dose curve; as a rule, active = well fitted inhibition curve with a large enough effect; inconclusive = small, poorly fitted or top-dose-only effect, or another doubt; inactive = no such curve, though single readings can be large or run the other way. Potencies beside an inconclusive call are fits to weak or partial responses and may not hold up.

Amino acid sequences for entries named in this document (tags omitted). A change or cut given only in a name is not applied to a line headed by its entry.
UniProt Q9UNA4: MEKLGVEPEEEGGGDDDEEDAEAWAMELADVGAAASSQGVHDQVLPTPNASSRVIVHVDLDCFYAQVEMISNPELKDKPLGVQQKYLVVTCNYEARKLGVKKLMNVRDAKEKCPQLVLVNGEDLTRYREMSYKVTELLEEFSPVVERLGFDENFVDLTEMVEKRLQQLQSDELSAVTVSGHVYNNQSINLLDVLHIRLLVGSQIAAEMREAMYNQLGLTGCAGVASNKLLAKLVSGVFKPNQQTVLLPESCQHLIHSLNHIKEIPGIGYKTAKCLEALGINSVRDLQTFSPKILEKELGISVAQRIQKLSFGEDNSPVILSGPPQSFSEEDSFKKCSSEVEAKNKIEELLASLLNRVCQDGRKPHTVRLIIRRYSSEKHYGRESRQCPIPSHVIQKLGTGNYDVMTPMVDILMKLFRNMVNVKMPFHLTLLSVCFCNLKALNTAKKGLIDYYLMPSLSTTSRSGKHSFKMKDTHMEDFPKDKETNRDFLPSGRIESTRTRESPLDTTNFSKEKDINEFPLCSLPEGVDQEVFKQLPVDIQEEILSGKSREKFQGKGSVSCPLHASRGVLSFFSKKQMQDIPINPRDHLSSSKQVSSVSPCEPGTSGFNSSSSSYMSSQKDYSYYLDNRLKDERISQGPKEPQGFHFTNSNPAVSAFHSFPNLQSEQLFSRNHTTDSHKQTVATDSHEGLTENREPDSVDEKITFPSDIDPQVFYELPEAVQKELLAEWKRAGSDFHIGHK

The compounds below were run against DNA polymerase iota (Homo sapiens) (UniProt Q9UNA4) (assay: qHTS for Inhibitors of Polymerase Iota). Details: Pol iota fluorescent replication assay, 10 min; series mostly up to 115 µM; activity, negative = inhibition: at the top concentration.
Summary of the method: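 Pol iota at 10 nM preincubated 15 min with compounds at room temperature; reaction started with fluorescent substrate, 50 nM final. Fluorescence read kinetically at 0 and 10 min; buffer-only wells as negative control.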
Potency is read from the fitted curve at half-maximal effect.

Row | SMILES | Potency | activity, negative = inhibition
1 | COc1cc(Cl)c(C)cc1NC(=O)CSc1sc2c(O)cc(=O)[nH]c2c1C#N | inconclusive: 50.1 µM [inhibitor, partial curve, poor fit] | 
2 | CCOC(=O)C(C(=O)OCC)C(Nc1cccc(Br)c1)c1ccccc1 (stereo not given) | inconclusive: 17.8 µM [inhibitor, partial curve, poor fit] | 
3 | O=C(CCc1nnc2ccc(NCc3ccco3)nn12)N1CCN(c2ccccc2F)CC1 | inconclusive: 56.2 µM [inhibitor, partial curve, poor fit] | 
4 | CCCn1c(=O)c2sccc2n2c(CCCC(=O)NC3CCN(Cc4ccccc4)CC3)nnc12 |  | inactive: 14.8%
5 | CCC(=O)Nc1ccc(C(=O)N/N=C/c2c(C)[nH]c3ccccc23)cc1 |  | inactive: 48.6%
6 | CCN(CC)c1ccc(/C=N/NC(=O)CNC(=O)/C=C/c2ccco2)cc1 | inconclusive: 31.6 µM [inhibitor, partial curve, poor fit] | 
7 | Cc1ccc(C2C(C#N)=C(N)Oc3n[nH]c(-c4cccs4)c32)cc1 (stereo not given) |  | inactive: 32.8%
8 | CCOc1ccccc1C(=O)NCC(=O)OCC(=O)c1ccc2c(c1)OCCO2 | inconclusive: 1.12 µM [inhibitor, full curve, poor fit] | 
9 | O=C(N/N=C/c1ccc(OC(=O)c2cccs2)cc1)c1ccccn1 |  | inactive: 15.8%
10 | N#C/C(=C\c1ccc(-c2cccc(Cl)c2)o1)C(=O)Nc1cccc(C(F)(F)F)c1 | active: 89.1 µM | 
11 | Cc1ccc(N2C(=O)c3ccccc3C2C(=O)c2cc(C)ccc2O)cc1 (stereo not given) |  | inactive: 9.83%
12 | c1ccc(Oc2cccc(OCCCn3cncn3)c2)cc1 |  | inactive: 9.76%
13 | COc1ccc(OC)c2c(N3CCN(C)CC3)cc(C(F)(F)F)nc12 | inconclusive: 3.55 µM [inhibitor, full curve, poor fit] | 
14 | CC1(C)CC(=O)C(C(=O)/C=C/c2ccco2)C(=O)C1 |  | inactive: 10.4%
15 | CSCCC(CO)NC(=O)OCc1ccccc1 (stereo not given) | inconclusive: 35.5 µM [inhibitor, single point] | 
16 | CCc1cc(C(=O)N(Cc2ccccc2)c2c(N)n(CCOC)c(=O)[nH]c2=O)sc1C | inconclusive: 100 µM [inhibitor, single point] | 
17 | CCn1c(NCc2ccccn2)nc2c1c(=O)n(C)c(=O)n2C | inconclusive: 12.6 µM [inhibitor, partial curve] | 
18 | CC(=O)n1cc(N(C(=O)CCl)c2ccc(Cl)cc2)c2ccccc21 | inconclusive: 6.31 µM [inhibitor, full curve, poor fit] | 
19 | O=C(c1cccs1)N1CCN(Cc2ccncc2)CC1 | inconclusive: 35.5 µM [inhibitor, partial curve, poor fit] | 
20 | CCc1cc(=O)[nH]c(SCc2nc(-c3ccc(C(F)(F)F)cc3)no2)n1 | inconclusive: 89.1 µM [inhibitor, single point] | 
21 | COc1ccc(C(=O)C2CCCN(Cc3ccc4nonc4c3)C2)cc1F (stereo not given) | inconclusive: 25.1 µM [inhibitor, partial curve, poor fit] | 
22 | CC(Cc1n[nH]c(=S)o1)c1ccccc1 (stereo not given) |  | inactive: 8.42%

Laid out differently: 20 of the compounds above.
Row	SMILES	Potency	activity, negative = inhibition
3	O=C(CCc1nnc2ccc(NCc3ccco3)nn12)N1CCN(c2ccccc2F)CC1	inconclusive: 56.2 µM [inhibitor, partial curve, poor fit]	
4	CCCn1c(=O)c2sccc2n2c(CCCC(=O)NC3CCN(Cc4ccccc4)CC3)nnc12		inactive: 14.8%
5	CCC(=O)Nc1ccc(C(=O)N/N=C/c2c(C)[nH]c3ccccc23)cc1		inactive: 48.6%
6	CCN(CC)c1ccc(/C=N/NC(=O)CNC(=O)/C=C/c2ccco2)cc1	inconclusive: 31.6 µM [inhibitor, partial curve, poor fit]	
7	Cc1ccc(C2C(C#N)=C(N)Oc3n[nH]c(-c4cccs4)c32)cc1 (stereo not given)		inactive: 32.8%
8	CCOc1ccccc1C(=O)NCC(=O)OCC(=O)c1ccc2c(c1)OCCO2	inconclusive: 1.12 µM [inhibitor, full curve, poor fit]	
9	O=C(N/N=C/c1ccc(OC(=O)c2cccs2)cc1)c1ccccn1		inactive: 15.8%
10	N#C/C(=C\c1ccc(-c2cccc(Cl)c2)o1)C(=O)Nc1cccc(C(F)(F)F)c1	active: 89.1 µM	
11	Cc1ccc(N2C(=O)c3ccccc3C2C(=O)c2cc(C)ccc2O)cc1 (stereo not given)		inactive: 9.83%
12	c1ccc(Oc2cccc(OCCCn3cncn3)c2)cc1		inactive: 9.76%
13	COc1ccc(OC)c2c(N3CCN(C)CC3)cc(C(F)(F)F)nc12	inconclusive: 3.55 µM [inhibitor, full curve, poor fit]	
14	CC1(C)CC(=O)C(C(=O)/C=C/c2ccco2)C(=O)C1		inactive: 10.4%
15	CSCCC(CO)NC(=O)OCc1ccccc1 (stereo not given)	inconclusive: 35.5 µM [inhibitor, single point]	
16	CCc1cc(C(=O)N(Cc2ccccc2)c2c(N)n(CCOC)c(=O)[nH]c2=O)sc1C	inconclusive: 100 µM [inhibitor, single point]	
17	CCn1c(NCc2ccccn2)nc2c1c(=O)n(C)c(=O)n2C	inconclusive: 12.6 µM [inhibitor, partial curve]	
18	CC(=O)n1cc(N(C(=O)CCl)c2ccc(Cl)cc2)c2ccccc21	inconclusive: 6.31 µM [inhibitor, full curve, poor fit]	
19	O=C(c1cccs1)N1CCN(Cc2ccncc2)CC1	inconclusive: 35.5 µM [inhibitor, partial curve, poor fit]	
20	CCc1cc(=O)[nH]c(SCc2nc(-c3ccc(C(F)(F)F)cc3)no2)n1	inconclusive: 89.1 µM [inhibitor, single point]	
21	COc1ccc(C(=O)C2CCCN(Cc3ccc4nonc4c3)C2)cc1F (stereo not given)	inconclusive: 25.1 µM [inhibitor, partial curve, poor fit]	
22	CC(Cc1n[nH]c(=S)o1)c1ccccc1 (stereo not given)		inactive: 8.42%

A different layout for some results above.
Row,SMILES,Potency,"activity, negative = inhibition"
3,O=C(CCc1nnc2ccc(NCc3ccco3)nn12)N1CCN(c2ccccc2F)CC1,"inconclusive: 56.2 µM [inhibitor, partial curve, poor fit]",
4,CCCn1c(=O)c2sccc2n2c(CCCC(=O)NC3CCN(Cc4ccccc4)CC3)nnc12,,inactive: 14.8%

Continuation.

Row | SMILES | Potency | activity, negative = inhibition
23 | CCOc1ccc(CCNC(=O)c2nnn(CC(=O)Nc3ccc(C)cc3)c2N)cc1OCC | inconclusive: 17.8 µM [inhibitor, full curve, poor fit] | 
24 | CCCc1nc2ccc(NC(=O)c3ccco3)cc2c(=O)n1Cc1ccc(Cl)cc1 | inconclusive: 20 µM [inhibitor, partial curve, poor fit] | 
25 | Cc1cc(N=NC(=O)c2ccccc2)ccc1O | inconclusive: 39.8 µM [inhibitor, single point] | 
26 | O=C(NCc1ccc(F)cc1)C(=O)NCC1OCCCN1S(=O)(=O)c1cccs1 (stereo not given) | inconclusive: 89.1 µM [inhibitor, single point] | 
27 | Cc1nn(CCC(=O)Nc2ccccc2Br)c(=O)c2nn(-c3ccccc3)c(C)c12 |  | inactive: 11.2%
28 | Cc1cc(C)c2cc(C#N)c(SCC(=O)NCc3ccco3)nc2c1 | inconclusive: 44.7 µM [inhibitor, partial curve, poor fit] | 
29 | CN(CCOC(=O)c1cccc(F)c1)Cc1ccccc1 | inconclusive: 15.8 µM [inhibitor, partial curve, poor fit] | 
30 | COC(=O)c1ccc(NC(=S)Nc2ccc3ccccc3c2)cc1 | inconclusive: 35.5 µM [inhibitor, partial curve, poor fit] | 
31 | COc1cc2nc(C3CCC3)nc(N3CCN(c4ccccc4OC)CC3)c2cc1OC |  | inactive: -14.2%
32 | O=C1/C(=C\c2ccc(O)cc2)SC(=S)N1Cc1ccccc1 | inconclusive: 35.5 µM [inhibitor, partial curve, poor fit] | 
33 | CCC(Sc1nc2n[nH]c(C)c2c(=N)n1-c1ccc(Br)cc1)C(=O)N(CC)CC (stereo not given) |  | inactive: -17.2%
34 | Cc1cn(-c2cc(C(=O)Nc3ccc(C)c(NC(=O)N4CCNC4=O)c3)cc(C(F)(F)F)c2)cn1 | inconclusive: 79.4 µM [inhibitor, partial curve, poor fit] | 
35 | Cc1ccc(OCc2nc(C#N)c(NCc3ccco3)o2)cc1 | inconclusive: 112 µM [inhibitor, single point] | 
36 | Cc1ccccc1N1C(=O)CC(N2CCN(C(=O)c3ccco3)CC2)C1=O (stereo not given) | inconclusive: 79.4 µM [inhibitor, single point] | 
37 | NC(=O)c1ccc(NC(=O)c2ccc(COc3ccc(F)cc3)o2)cc1 |  | inactive: 0.629%
38 | Cc1ccc(NC(=O)Cn2nc(-c3ccc(Cl)cc3)c3ccccc3c2=O)cc1 | inconclusive: 89.1 µM [inhibitor, single point] | 
39 | Cc1c(Cl)cccc1NC(=O)c1cc(C2CC2)on1 | inconclusive: 39.8 µM [inhibitor, partial curve, poor fit] | 
40 | COc1ccccc1-c1ncnn1-c1sc2c(c1C#N)CCCCC2 |  | inactive: -15.4%
41 | O=S1(=O)CCC(NC(=S)SCCOc2ccccc2)C1 (stereo not given) | inconclusive: 17.8 µM [inhibitor, full curve, poor fit] | 
42 | COc1ccccc1CN(Cc1cc2cc3c(cc2[nH]c1=O)OCCO3)Cc1nnnn1Cc1ccco1 | inconclusive: 20 µM [inhibitor, full curve, poor fit] | 
43 | COc1cccc(NC(=O)C(NCC(C)(C)CN(C)C)c2ccccc2)c1 (stereo not given) | inconclusive: 20 µM [inhibitor, partial curve, poor fit] | 
44 | CCCc1ccc(OC(=O)c2sc3ncn(Cc4cccc(F)c4)c(=O)c3c2C)cc1 |  | inactive: -4.12%

Row | SMILES | Potency | activity, negative = inhibition
45 | COc1ccc(NC(=O)Cn2c(SCc3c(F)cccc3Cl)nc3ccncc32)cc1OC |  | inactive: -10.4%
46 | Cc1cc(C)cc(NC(=O)C2CCCN(c3nnc(-n4c(C)ccc4C)s3)C2)c1 (stereo not given) |  | inactive: -2.29%
47 | O=C(NNC(=S)Nc1ccc(F)cc1)c1cccc([N+](=O)[O-])c1 | inconclusive: 28.2 µM [inhibitor, partial curve, poor fit] | 
48 | CC(=O)NN1C(=O)/C(=C/c2ccc(Br)o2)SC1=S | active: 2.51 µM | 
49 | Nc1c(Cl)cc(-c2[nH]c3cc(C(=O)NCCO)ccc3c(=O)c2O)cc1Cl | inconclusive: 14.1 µM [inhibitor, single point] | 
50 | O=C(COC(=O)c1cc(S(=O)(=O)NCc2ccccc2)ccc1O)c1cc2ccccc2o1 | inconclusive: 25.1 µM [inhibitor, full curve] | 
51 | O=C(Nc1ccccc1C(F)(F)F)c1ncn[nH]1 | inconclusive: 79.4 µM [inhibitor, partial curve, poor fit] | 
52 | O=c1sc2ccccc2n1CCCOc1ccccc1 | inconclusive: 39.8 µM [inhibitor, partial curve, poor fit] | 
53 | CCc1ccc(NS(=O)(=O)c2ccc3[nH]cc(C(=O)NCCc4ccccc4)c(=O)c3c2)cc1 | inconclusive: 70.8 µM [inhibitor, partial curve] | 
54 | CCOC(=O)Cc1csc(NC(=O)/C=C/c2ccc(Br)o2)n1 | inconclusive: 3.16 µM [inhibitor, full curve, poor fit] | 
55 | COCCNC(=O)c1sc2nc3n(c(=O)c2c1C)CCC3 |  | inactive: 10.2%
56 | COc1ccc(-c2nnc(SCC(=O)c3ccc(O)cc3O)o2)cc1 | inconclusive: 15.8 µM [inhibitor, partial curve, poor fit] | 
57 | O=C(O)/C=C/C(=O)Nc1ccc(C2(c3ccc(NC(=O)/C=C/C(=O)O)cc3)c3ccccc3-c3ccccc32)cc1 | inconclusive: 20 µM [inhibitor, partial curve, poor fit] | 
58 | CCCOC(=O)Nc1ccc(S(=O)(=O)Nn2cnnc2)cc1 | inconclusive: 70.8 µM [inhibitor, single point] | 
59 | COc1ccc(-c2sc3ccc(N4CCOCC4)cc3c2C#CCO)cc1 | inconclusive: 31.6 µM [inhibitor, single point] | 
60 | COC(=O)c1sc(NC(=O)c2cc3c(s2)CCCC3)nc1C | inconclusive: 14.1 µM [inhibitor, partial curve] | 
61 | O=C(COC(=O)c1cc(-c2cccs2)nc2ccccc12)NCc1ccco1 | inconclusive: 14.1 µM [inhibitor, full curve, poor fit] | 
62 | N#C/C(=C\c1ccccc1)c1nc(-c2cc3c(ccc4ccccc43)oc2=O)cs1 |  | inactive: -16.7%
63 | Cn1c(=O)c(Nc2ccc(Cl)cc2)c2c3c(cccc31)C(=O)c1ccccc1-2 | inconclusive: 22.4 µM [inhibitor, partial curve, poor fit] | 
64 | CCN(C[C@H]1N[C@@](Cc2ccccc2)(C(=O)OC)[C@H]2C(=O)N(Cc3ccccc3)C(=O)[C@@H]12)S(=O)(=O)c1ccc(C(F)(F)F)cc1 | inconclusive: 31.6 µM [inhibitor, partial curve] | 
65 | CCOc1cc(C(=O)N2CC(=O)Nc3ccc(F)cc3C2c2ccccc2)cc(OCC)c1OCC (stereo not given) |  | inactive: -1.33%
